Results published in article PMC7491320.
These are yes or no findings as the source states them, for the method shown. Some entries that bind do so weakly or less than the wild type.

The chains behind the UniProt entries cited, without tags or fusion partners. Where a name states a change or a piece, a line headed by the entry shows the natural chain unless it says otherwise.
UniProt P87173: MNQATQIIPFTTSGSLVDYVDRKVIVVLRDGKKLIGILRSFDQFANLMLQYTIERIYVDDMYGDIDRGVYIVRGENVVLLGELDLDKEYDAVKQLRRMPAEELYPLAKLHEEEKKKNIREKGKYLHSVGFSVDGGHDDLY

Biological target: Lsm1–7 complex (S. pombe) (UniProt P87173)
Assay: co-purification (Ni-NTA, heparin, gel filtration); PatMC coexpressed with Lsm1–7 in E. coli (pET-Duet); His6 on Lsm1 bound to Ni-NTA in 2 M NaCl, heparin column, TEV, Superdex 200 16/60 in 400 mM NaCl, 20 mM HEPES 7.0, 1 mM DTT

binding: binds
B1: PatMC (middle and carboxy-terminal domains of Pat1, residues 296–754) (domain or fragment, UniProt O42958 296-754)
chain: LDEKRQKLERDHMLMAQCAGLMTRSDKSFIARIQISQLMSEDPESDDFYYRVYSIIRGRKPSEEEASHFIQTYLGPSNNRRRGRRSENPMQKLQQQLQRLVSSAKERPKATQLSLEGALGKIAVNTVRTPRQLLNVKRPTEPASSNSSLNNFSGFSTKKDVLHAIEKVYDLLLDFEQALRKASTLETTDQEQIDTWKTTLSEKLESIWKALYINESLEASSKTRPPFISIISHPKGMRLLPRLFPHLSKEQQISILKVVVYNFDSLDIVLRGTFDVNGELPLDVVSEMSSFTQFIIPPLLTIVNELDLETINNLFSQLLNRTNAVYLIQTKIGLSFLTLFISRAEILKQSGTVNQNEKEEWENTFNVMFNRVKGHFSTVFPPPNARAYADESYPWEFLAACATAASSEQHFTLVSETRDRVLDNIITSKRAPSEIAVVRISNVNLFLNAMGLDARQLSA
